# Reference: PubChem BioAssay AID1259254 (NCATS, 2017)
# Assay: 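Gene knock-downs that lead to re-replication, shown by excess G2 DNA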 (primary screen)
# Cells: human HCT116 colorectal cancer cells
# Reagent: single siRNA against human genes
# Duration: 3 days
# Measured: 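Imaged Hoechst DNA stain sorts each cell into a cycle phase by DNA amount; per plate, G2 fraction set to 0% for non-targeting and 100% for GMNN siRNA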
# Scale: G2 robust z-score and G2 cells, % of GMNN control: higher = more G2 cells, more excess DNA replication
# Rule for the call: 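Active siRNAs have a G2 robust z of 5 or more median absolute deviations over the median, which in these data means about 38% or higher of GMNN control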
# Here is an unselected part of about 59,000 reagents tested. In the full data, about 1,550 (2.6%) were called active. 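G2 share is only a proxy for re-replication; each gene was hit by three separate siRNAs, and active genes were retested.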 Reagents against one gene are numbered here. Further read-outs or replicates are left out here. Not stated in the record: the amount of reagent.
gene symbol,reagent no.,G2 robust z-score,"G2 cells, % of GMNN control",activity call
RLN2,1,-0.867,-3.13,inactive
RLN2,2,-0.269,1.08,inactive
RLN2,3,2.76,22.4,inactive
WDR90,1,-0.653,-1.63,inactive
WDR90,2,0.249,4.72,inactive
WDR90,3,-0.733,-2.19,inactive
VMA12,1,-0.252,1.2,inactive
VMA12,2,4.87,37.2,inactive
VMA12,3,-0.205,1.52,inactive
CHPF,1,2.32,19.3,inactive
CHPF,2,2.4,19.9,inactive
CHPF,3,1.98,16.9,inactive
ITGA2,1,-0.252,1.19,inactive
ITGA2,2,0.0818,3.54,inactive
ITGA2,3,0.637,7.45,inactive
GBP5,1,1.35,12.5,inactive
GBP5,2,1.7,14.9,inactive
GBP5,3,-0.825,-2.84,inactive
OSR1,1,3.59,28.2,inactive
OSR1,2,1.19,11.3,inactive
OSR1,3,0.293,5.03,inactive
MAPKAPK3,1,1.84,15.9,inactive
MAPKAPK3,2,3.5,27.6,inactive
MAPKAPK3,3,-0.567,-1.02,inactive
IL33,1,0.000886,2.97,inactive
IL33,2,-0.412,0.0656,inactive
IL33,3,0.754,8.27,inactive
CDKN2B,1,-0.0855,2.37,inactive
CDKN2B,2,-1.22,-5.58,inactive
CDKN2B,3,0.418,5.91,inactive

3 of these entries, reformatted.
gene symbol | reagent no. | G2 robust z-score | G2 cells, % of GMNN control | activity call
MAPKAPK3 | 3 | -0.567 | -1.02 | inactive
IL33 | 1 | 0.000886 | 2.97 | inactive
IL33 | 2 | -0.412 | 0.0656 | inactive
